According to article PMC12751231:
Results are given in words; binding and its absence hold for the method and conditions named. Binding seen in cells or lysates may run through a third protein. These calls come from enrichment with a bait or labelling near it, and not all partners need be listed. Where a sequence is shown, tags or fusion partners need not be part of it.

Amino acid sequences for entries named in this document (tags omitted).
UniProt Q61879: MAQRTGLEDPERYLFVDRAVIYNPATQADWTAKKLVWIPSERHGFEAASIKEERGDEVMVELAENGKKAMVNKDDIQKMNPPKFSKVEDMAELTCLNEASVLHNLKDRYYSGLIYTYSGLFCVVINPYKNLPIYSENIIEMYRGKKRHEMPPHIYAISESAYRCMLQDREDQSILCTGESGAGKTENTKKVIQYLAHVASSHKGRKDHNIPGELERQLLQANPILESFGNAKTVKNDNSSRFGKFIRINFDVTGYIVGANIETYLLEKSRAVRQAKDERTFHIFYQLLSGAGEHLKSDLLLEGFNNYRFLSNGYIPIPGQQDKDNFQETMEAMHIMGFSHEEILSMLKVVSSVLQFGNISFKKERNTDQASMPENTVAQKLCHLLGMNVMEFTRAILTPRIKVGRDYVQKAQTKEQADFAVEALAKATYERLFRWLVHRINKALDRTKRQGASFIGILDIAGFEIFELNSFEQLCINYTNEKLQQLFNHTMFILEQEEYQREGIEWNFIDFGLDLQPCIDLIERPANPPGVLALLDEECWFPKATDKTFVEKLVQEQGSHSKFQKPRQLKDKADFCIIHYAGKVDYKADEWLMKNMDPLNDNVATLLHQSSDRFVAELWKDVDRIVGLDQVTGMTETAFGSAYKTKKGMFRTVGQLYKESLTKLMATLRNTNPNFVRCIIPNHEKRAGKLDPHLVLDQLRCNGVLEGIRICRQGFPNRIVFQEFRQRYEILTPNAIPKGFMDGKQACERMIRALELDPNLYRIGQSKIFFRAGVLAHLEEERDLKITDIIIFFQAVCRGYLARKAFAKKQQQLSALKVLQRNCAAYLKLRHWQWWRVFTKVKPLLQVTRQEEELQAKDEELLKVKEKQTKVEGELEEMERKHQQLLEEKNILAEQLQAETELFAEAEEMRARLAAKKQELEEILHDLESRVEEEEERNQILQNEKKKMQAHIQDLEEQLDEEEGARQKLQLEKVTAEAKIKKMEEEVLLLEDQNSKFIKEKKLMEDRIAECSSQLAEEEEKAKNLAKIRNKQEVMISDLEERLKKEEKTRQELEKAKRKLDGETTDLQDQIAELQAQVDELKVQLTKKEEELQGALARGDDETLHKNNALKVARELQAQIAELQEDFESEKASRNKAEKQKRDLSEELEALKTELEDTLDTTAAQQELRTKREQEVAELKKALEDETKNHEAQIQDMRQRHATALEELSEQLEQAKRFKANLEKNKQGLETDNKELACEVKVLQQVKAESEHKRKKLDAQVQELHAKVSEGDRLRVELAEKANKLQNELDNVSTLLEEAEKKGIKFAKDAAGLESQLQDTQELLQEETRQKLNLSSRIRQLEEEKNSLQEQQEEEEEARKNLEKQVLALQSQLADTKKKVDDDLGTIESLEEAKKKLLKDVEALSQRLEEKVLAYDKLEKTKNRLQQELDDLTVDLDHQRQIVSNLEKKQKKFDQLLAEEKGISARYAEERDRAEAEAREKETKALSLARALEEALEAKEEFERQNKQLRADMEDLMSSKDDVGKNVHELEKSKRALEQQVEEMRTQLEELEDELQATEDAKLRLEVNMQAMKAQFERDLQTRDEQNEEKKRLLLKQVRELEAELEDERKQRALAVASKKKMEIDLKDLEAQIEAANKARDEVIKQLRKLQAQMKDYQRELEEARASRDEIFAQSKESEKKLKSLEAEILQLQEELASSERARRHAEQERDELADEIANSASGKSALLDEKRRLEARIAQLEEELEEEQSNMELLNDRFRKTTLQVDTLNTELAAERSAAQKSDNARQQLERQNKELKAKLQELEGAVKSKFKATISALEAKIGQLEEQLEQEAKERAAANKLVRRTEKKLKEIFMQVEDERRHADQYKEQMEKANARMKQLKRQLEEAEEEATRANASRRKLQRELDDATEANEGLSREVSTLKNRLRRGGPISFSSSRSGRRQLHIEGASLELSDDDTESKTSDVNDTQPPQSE

Target: T1, CFAP57 (cilia and flagella associated protein 57), mouse (mouse (endogenous in testis)) (UniProt Q9D180)
T1 sequence: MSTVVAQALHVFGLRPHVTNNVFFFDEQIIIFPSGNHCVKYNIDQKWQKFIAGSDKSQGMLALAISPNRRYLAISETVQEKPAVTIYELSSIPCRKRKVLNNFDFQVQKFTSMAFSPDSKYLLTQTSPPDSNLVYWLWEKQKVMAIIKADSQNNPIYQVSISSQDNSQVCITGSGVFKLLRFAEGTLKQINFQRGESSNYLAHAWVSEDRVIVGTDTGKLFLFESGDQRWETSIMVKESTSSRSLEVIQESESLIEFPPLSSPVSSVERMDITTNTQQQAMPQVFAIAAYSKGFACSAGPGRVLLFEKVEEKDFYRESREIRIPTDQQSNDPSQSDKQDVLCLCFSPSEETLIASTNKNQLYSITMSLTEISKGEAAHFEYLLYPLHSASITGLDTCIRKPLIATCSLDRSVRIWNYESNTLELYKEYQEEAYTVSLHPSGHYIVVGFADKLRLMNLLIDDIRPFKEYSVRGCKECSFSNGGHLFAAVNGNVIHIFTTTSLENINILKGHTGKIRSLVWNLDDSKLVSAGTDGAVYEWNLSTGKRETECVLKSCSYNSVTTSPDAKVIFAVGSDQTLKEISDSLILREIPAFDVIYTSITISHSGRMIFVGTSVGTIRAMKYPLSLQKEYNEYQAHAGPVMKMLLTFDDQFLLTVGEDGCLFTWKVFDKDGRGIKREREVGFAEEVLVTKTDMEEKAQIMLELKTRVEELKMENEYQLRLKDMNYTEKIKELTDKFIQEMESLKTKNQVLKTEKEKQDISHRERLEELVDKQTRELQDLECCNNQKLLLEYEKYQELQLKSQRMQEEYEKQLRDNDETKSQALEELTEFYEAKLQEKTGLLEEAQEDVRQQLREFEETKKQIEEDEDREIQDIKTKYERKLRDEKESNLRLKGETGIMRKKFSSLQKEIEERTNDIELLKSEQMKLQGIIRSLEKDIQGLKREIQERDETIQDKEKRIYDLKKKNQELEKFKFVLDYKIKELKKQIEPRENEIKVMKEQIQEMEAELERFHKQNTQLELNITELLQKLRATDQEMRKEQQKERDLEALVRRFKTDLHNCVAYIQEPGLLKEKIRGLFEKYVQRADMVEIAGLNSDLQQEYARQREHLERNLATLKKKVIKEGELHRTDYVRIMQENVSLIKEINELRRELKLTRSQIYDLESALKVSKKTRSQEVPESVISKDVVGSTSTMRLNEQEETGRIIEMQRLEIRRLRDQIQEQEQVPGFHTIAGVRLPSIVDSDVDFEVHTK
Test: affinity purification with mass spectrometry; WT and Cfap57^M/M mouse testis lysate (50 mM Tris-HCl pH 7.4, 150 mM NaCl, 1% NP-40, 1 mM EDTA, 0.1% SDS); anti-CFAP57 or IgG overnight at 4 °C, protein G agarose beads, five washes; SDS-PAGE, silver staining, in-gel trypsin digest, LC-MS/MS

| Substance | binding |
| --- | --- |
| MYH10, a non-muscle myosin II isoform, mouse (from UniProt Q61879 1-1976) | binds |
| RAB1, mouse | binds |
